Data taken from publication PMC7648012.
No constants are given. Whether binding was seen depends on the method and setting. In cells and extracts the contact can be indirect. Some results given as binding are weak or reduced against the parent protein; the word gives no strength. For some assays here: Sequences can lack the tags named with a protein.

The chains behind the UniProt entries cited, without tags or fusion partners.
UniProt Q9P0M6: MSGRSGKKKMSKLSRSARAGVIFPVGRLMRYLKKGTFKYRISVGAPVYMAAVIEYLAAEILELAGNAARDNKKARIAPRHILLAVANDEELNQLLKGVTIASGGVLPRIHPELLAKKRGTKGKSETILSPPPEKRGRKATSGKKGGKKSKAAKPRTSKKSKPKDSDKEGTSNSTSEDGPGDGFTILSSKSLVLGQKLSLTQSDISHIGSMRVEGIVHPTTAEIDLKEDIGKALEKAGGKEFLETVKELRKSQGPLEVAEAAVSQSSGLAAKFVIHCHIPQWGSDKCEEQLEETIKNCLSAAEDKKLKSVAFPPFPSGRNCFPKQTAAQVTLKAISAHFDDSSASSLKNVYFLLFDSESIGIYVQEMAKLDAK

T1: 3×FLAG-LSH (wild type) (human) (UniProt Q9NRZ9)
T1 sequence: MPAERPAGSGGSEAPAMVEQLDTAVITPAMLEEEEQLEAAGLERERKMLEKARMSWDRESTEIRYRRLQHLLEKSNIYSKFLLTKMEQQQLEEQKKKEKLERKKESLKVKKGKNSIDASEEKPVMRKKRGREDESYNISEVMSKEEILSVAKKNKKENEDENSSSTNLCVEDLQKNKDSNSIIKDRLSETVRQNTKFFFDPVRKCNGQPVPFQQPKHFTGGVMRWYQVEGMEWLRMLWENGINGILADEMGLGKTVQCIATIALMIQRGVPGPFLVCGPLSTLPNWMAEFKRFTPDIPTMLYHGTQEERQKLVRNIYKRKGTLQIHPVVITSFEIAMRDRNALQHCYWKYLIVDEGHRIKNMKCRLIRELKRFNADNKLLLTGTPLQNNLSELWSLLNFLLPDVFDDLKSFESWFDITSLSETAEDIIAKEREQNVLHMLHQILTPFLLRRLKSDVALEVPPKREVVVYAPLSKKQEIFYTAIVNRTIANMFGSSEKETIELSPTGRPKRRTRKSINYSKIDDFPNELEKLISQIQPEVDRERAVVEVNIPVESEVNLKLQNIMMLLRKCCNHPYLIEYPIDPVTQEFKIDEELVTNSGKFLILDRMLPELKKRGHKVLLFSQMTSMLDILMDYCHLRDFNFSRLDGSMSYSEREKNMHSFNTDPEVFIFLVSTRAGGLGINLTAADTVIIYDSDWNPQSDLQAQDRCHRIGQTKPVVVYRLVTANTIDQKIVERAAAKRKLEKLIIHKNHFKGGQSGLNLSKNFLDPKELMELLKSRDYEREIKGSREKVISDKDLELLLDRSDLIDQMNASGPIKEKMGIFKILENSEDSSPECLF


What was measured:
[1] = target: T1, 3×FLAG-LSH (wild type) (human); assay: co-IP; Flag-IP from lysate of U2OS cells stably expressing 3×FLAG-LSH (WT or ICF4 mutant); IP lysis buffer 25 mM Tris-HCl pH 7.4, 150 mM NaCl, 1% NP-40, 1 mM EDTA, 5% glycerol; 4 °C overnight; Protein G magnetic beads; western blot
macroH2A2-GFP = macroH2A2-GFP (UniProt Q9P0M6); assay: co-IP; GFP-IP from lysate of U2OS cells with a stably integrated macroH2A2-GFP vector (GFP cells as control); IP lysis buffer 25 mM Tris-HCl pH 7.4, 150 mM NaCl, 1% NP-40, 1 mM EDTA, 5% glycerol; 4 °C overnight; Protein G magnetic beads; western blot

Row | Molecule | binding [1] | binding (macroH2A2-GFP)
1 | macroH2A2 (from UniProt Q9P0M6 1-372) | binds | –
2 | LSH (endogenous in U2OS) (protein, UniProt Q9NRZ9 1-838) MPAERPAGSGGSEAPAMVEQLDTAVITPAMLEEEEQLEAAGLERERKMLEKARMSWDRESTEIRYRRLQHLLEKSNIYSKFLLTKMEQQQLEEQKKKEKLERKKESLKVKKGKNSIDASEEKPVMRKKRGREDESYNISEVMSKEEILSVAKKNKKENEDENSSSTNLCVEDLQKNKDSNSIIKDRLSETVRQNTKFFFDPVRKCNGQPVPFQQPKHFTGGVMRWYQVEGMEWLRMLWENGINGILADEMGLGKTVQCIATIALMIQRGVPGPFLVCGPLSTLPNWMAEFKRFTPDIPTMLYHGTQEERQKLVRNIYKRKGTLQIHPVVITSFEIAMRDRNALQHCYWKYLIVDEGHRIKNMKCRLIRELKRFNADNKLLLTGTPLQNNLSELWSLLNFLLPDVFDDLKSFESWFDITSLSETAEDIIAKEREQNVLHMLHQILTPFLLRRLKSDVALEVPPKREVVVYAPLSKKQEIFYTAIVNRTIANMFGSSEKETIELSPTGRPKRRTRKSINYSKIDDFPNELEKLISQIQPEVDRERAVVEVNIPVESEVNLKLQNIMMLLRKCCNHPYLIEYPIDPVTQEFKIDEELVTNSGKFLILDRMLPELKKRGHKVLLFSQMTSMLDILMDYCHLRDFNFSRLDGSMSYSEREKNMHSFNTDPEVFIFLVSTRAGGLGINLTAADTVIIYDSDWNPQSDLQAQDRCHRIGQTKPVVVYRLVTANTIDQKIVERAAAKRKLEKLIIHKNHFKGGQSGLNLSKNFLDPKELMELLKSRDYEREIKGSREKVISDKDLELLLDRSDLIDQMNASGPIKEKMGIFKILENSEDSSPECLF | – | binds
